The values below come from paper PMC12040169 (PLOS Biology, 2025).

This is one part of the list.

The experiment relates to T1, CTL2-GFP (C. trachomatis L2/434/Bu, GFP-expressing).
T1 construct: L2/434/Bu, GFP-expressing
Also noted: species or system HeLa; Intracellular C. trachomatis growth in HeLa cells, bulk GFP fluorescence relative to DMSO. The note with it: bulk GFP, single well; 28.5 h, 10 µM; inhibitor.
Take `CC[C@H]1CCCCN1C(=O)c1sc2ncccc2c1Cl` [CBK092276]: the “% of control remaining” value was 119.729%.
For `Cc1ccc2c(N)c(C(=O)c3ccc4c(c3)OCCO4)sc2n1` [CBK270265] the value was 162.498%; for `CCn1cncc1CN(Cc1ccc(F)cc1)CC1CCCO1` (stereo not drawn) [CBK283036], 142.835%.
For `O=C(Nc1ccc2[nH]ccc2c1)c1ccc(Cl)cc1` [CBK159668] the value was 97.4758%; for `CN1CCN(C(=O)c2ccc(NS(=O)(=O)c3cc(Cl)sc3Cl)cc2)CC1` [CBK034549], 137.881%; for `COCCN(CCOC)c1ncc(C#N)cc1Cl` [CBK306227], 136.259%.
The result for `CN(c1ncc(-c2ccccc2)cc1C(=O)NCc1cccnc1)S(C)(=O)=O` [CBK076507] reads 97.6541%.
Take `COc1ccc(C(=O)Nc2c(C)nn(C)c2N2CCNCC2)cc1` [CBK050306T]: the “% of control remaining” value worked out at 122.23%.
For `COc1ccc(C2(C(=O)NCCCN3CCN(C)CC3)CC2)cc1` [CBK149822] the value was 104.135%; for `O=C(Cn1nnc2ccccc2c1=O)N1CCCC(C(F)(F)F)C1` (stereo not drawn) [CBK305900], 129.18%.
For `Cc1nc(C2(O)CCCN(C3CCCC3)CC2)sc1COc1ccc(Cl)cc1` (stereo not drawn) [CBK285940] the value was 104.124%; for `c1cnc(N2CCN(CC3CC3)CC2)c(OCCN2CCOCC2)n1` [CBK082909], 116.44%; for `O=C(c1ccc[nH]1)N1CCc2ccccc21` [CBK200285], 111.123%.
For `O=C(NCc1c(F)cccc1F)c1ccc(-c2ccc(OC(F)(F)F)cc2)nc1` [CBK161007T] the value was 136.714%; for `OCCNc1ncnc2c1ncn2Cc1ccccc1` [CBK287933], 126.938%; for `Cc1nn(C)cc1-c1cncn1CC1(N(C)C)CCC(C)CC1` (stereo not drawn) [CBK281799], 127.496%.
Take `Cc1noc2nc(C3CCN(C(=O)C4CC4)CC3)cc(C(F)F)c12` [CBK285306]: the “% of control remaining” value turned out to be 140.223%.
For `Cc1nc(CCNC(=O)C2CC(c3cccc(F)c3)=NO2)cs1` (stereo not drawn) [CBK305798] the value was 127.061%.
The result for `Cc1ccc(SCCC(=O)NC(CCC(=O)O)C(=O)O)cc1` (stereo not drawn) [CBK295173] reads 144.216%.
For `O=S1(=O)CC(OS(=O)(=O)c2ccc(Cl)cc2)C(OS(=O)(=O)c2ccc(Cl)cc2)C1` (stereo not drawn) [CBK262049] the value was 86.2794%.
For the compound `COc1ccc(NC(=O)c2ccc3nsnc3c2)cc1` [CBK263160], the “% of control remaining” value is 94.7385%.
As for `CCC(C)(C)c1ccc(S(=O)(=O)N2CCN(Cc3c(C)nn(C)c3C)CC2)cc1` [CBK062835], the “% of control remaining” value stood at 88.5963%.
As to `CS(=O)(=O)Nc1nccnc1N1CCN(C(=O)c2ccno2)CC1` [CBK048861], the “% of control remaining” value is on record as 129.866%.
In the case of `O=C(O)c1ccc(NC(=O)c2cc(S(=O)(=O)N3CCCCC3)cs2)cc1` [CBK265722], the “% of control remaining” value is 135.375%.
For `CCNC(=O)c1ccc(-n2cccn2)c(C#Cc2cccnc2)c1` [CBK283150] the value was 87.3476%; for `CC1CN(c2cc(CNc3ncccc3Cl)ccn2)CCO1` (stereo not drawn) [CBK306456], 96.7521%; for `CCOC(=O)N1CCN(C(=O)CCC(=O)O)CC1` [CBK287075], 107.643%.
The result for `COCc1cc(C)nc(OCC(=O)N2CCCCC2)c1C#N` [CBK270228] reads 119.31%; that for `CN(C)S(=O)(=O)c1cccnc1OCC(O)CNC(C)(C)C` (stereo not drawn) [CBK058059], 136.883%.
Take `CS(=O)(=O)N1CCc2cc(S(=O)(=O)NCCc3c[nH]c4ccccc34)ccc21` [CBK268487]: the “% of control remaining” value is 131.241%.
For `O=C(O)c1cc(NCc2ccccc2)ccc1N1CCOCC1` [CBK287099] the value was 104.447%; for `COc1ccc(C(=O)Nc2ccccc2)cc1S(=O)(=O)Nc1cccnc1` [CBK266771], 114.817%; for `O=C(c1ccc2ncsc2c1)N1CCN(S(=O)(=O)c2ccc(C(F)(F)F)cc2)CC1` [CBK295285], 114.597%.
The result for `O=C(/C=C/c1cn(C2OC(CO)C(O)C2O)c(=O)[nH]c1=O)NCCCCCCNC(=O)C(F)(F)F` (stereo not drawn) [CBK201231] reads 156.846%; that for `O=C(O)Cn1c2ccccc2c2nc3ccccc3nc21` [CBK263649], 128.462%; that for `Fc1cnc(N2CCCC3(CCOC3)C2)nc1N1CCOCC1` (stereo not drawn) [CBK307131], 146.132%.
For `CCOC(=O)C1(O)CCN(c2ccc(C#N)cc2F)CC1` [CBK304836] the value was 91.6914%; for `CN(C1CCCCC1)S(=O)(=O)c1cc(Cl)ccc1Cl` [CBK261744], 87.7091%.
Consider `Cc1c(F)cccc1CNCCNC(=O)OC(C)(C)C` [CBK056700], for which the “% of control remaining” value came out at 122.435%.
For `CCCn1ncc(C(=O)N2CCc3c([nH]c4ccccc34)C2C)c1C` (stereo not drawn) [CBK281546] the value was 83.686%.
For `CC(C)NC(=O)c1cc([C@H]2CC[C@H](CNC(=O)CN3CCCC3)CC2)nc2ccccc12` [CBK285861] the value was 130.476%; for `C#CC1(NC(=O)NS(=O)(=O)c2ccc(C)cc2)CCCCC1` [CBK028805], 119.136%.
In the case of `CC(=O)N[C@H]1CC[C@]2(C)CCC([C@H](C)C(=O)NCCN3CCOCC3)[C@H](O)[C@H]2[C@@H]1C` (stereo partly drawn) [CBK289434], the “% of control remaining” value is listed as 103.455%.
In the case of `Cc1cccc2sc(NC(=O)c3ccccc3)nc12` [CBK287300], the “% of control remaining” value is given as 139.231%.
`Oc1ccccc1CN1CCN(Cc2ccccc2O)C1c1ccccc1Br` [CBK262050]: the “% of control remaining” value is reported as 99.5733%.
The result for `O=C(Nc1ccc2n(c1=O)C[C@@H]1CNC[C@H]2C1)c1ccc(F)cc1` [CBK289078] reads 120.532%.
For the compound `CS(=O)(=O)c1ccc(C(=O)N(Cc2ccccc2)c2ccc(S(=O)(=O)N3CCOC3=O)cc2)cc1` [CBK024590], the “% of control remaining” value is 95.961%.
The result for `CNS(=O)(=O)c1ccc2c(c1)CCN2C(=O)C1C2CCCCC21` (stereo not drawn) [CBK281521] reads 129.317%; that for `O=C(CCc1nc(-c2ccccc2F)no1)Nc1ccccc1[N+](=O)[O-]` [CBK268341], 140.164%; that for `CCCc1nc(CN2CCN(c3ccc4nncn4n3)CC2)cs1` [CBK305330], 106.477%.
For `COc1cccc(C2CCCN2C(=O)CC2CCN(C(=O)CC3CCCCC3)CC2)c1` (stereo not drawn) [CBK286264] the value was 137.474%.
